Source: US6410722

Legend:
[1] = test system: OBA (Ors Binding Activity), Sephacryl S-300 pool I, ~150-200 kDa; test: EMSA; settings: complex reduced at 50-fold and abolished at 500-fold molar excess of cold A3/4; South-western with labeled A3/4 also run; protein in an extract; protein details: partially purified HeLa cell activity, native; label: 5' end-label (32P)
[2] = test system: OBA (Ors Binding Activity), Sephacryl S-300 pool I, ~150-200 kDa; test: competition with a labelled probe; settings: circular ds plasmid competed for OBA binding; protein in an extract; protein details: partially purified HeLa cell activity, native; only the site is given

CCTCAAATGGTCTCCAATTTTCCTTTGGCAAATTCC (double strand) [A3/4 36-bp alphaconsensus oligonucleotide (ds)]
binding result [1]: binds

CCTCAAATGGTCTCCAATTTTCCTTTGGCAAATTCC [circular plasmid containing A3/4 consensus]
binding result [2]: binds

The exact form of at least one protein or probe is not confirmed. Where cells or extracts were used, other partners may take part.
